Results are given in words; binding and its absence hold for the method and conditions named. In cells and extracts the contact can be indirect. Some entries that bind do so weakly or less than the wild type.
Assays:
Test in all cases: co-IP; HEK293 cell extracts in Buffer A (20 mM Tris-HCl pH 7.5, 120 mM NaCl, 1 mM EDTA, 5 mM EGTA, 20 mM β-glycerophosphate, 0.3% CHAPS, 1 mM dithiothreitol), 0-4°C, 2 h with Protein G-Sepharose coupled with each antibody, washed three times with Buffer A; immunoblot
[1] = target: endogenous mLST8 of HEK293 cells (human (endogenous in HEK293)) (UniProt Q9BVC4)
[2] = target: FLAG-tagged wild type mLST8 (UniProt Q9BVC4)
[3] = target: FLAG-tagged mLST8 mutant replacing Gly150 by Asp (UniProt Q9BVC4)
[4] = target: FLAG-tagged mLST8 mutant replacing Gly192 by Asp (UniProt Q9BVC4)
[5] = target: FLAG-tagged mLST8 mutant replacing Ala182 by Asp (UniProt Q9BVC4)
[6] = target: FLAG-tagged mLST8 mutant replacing Phe320 by Ser (UniProt Q9BVC4)

Amino acid sequences for entries named in this document (tags omitted). A change or cut given only in a name is not applied to a line headed by its entry. Chains listed by the source or under a name are the forms on record and can include a tag or linker.
UniProt Q9BVC4: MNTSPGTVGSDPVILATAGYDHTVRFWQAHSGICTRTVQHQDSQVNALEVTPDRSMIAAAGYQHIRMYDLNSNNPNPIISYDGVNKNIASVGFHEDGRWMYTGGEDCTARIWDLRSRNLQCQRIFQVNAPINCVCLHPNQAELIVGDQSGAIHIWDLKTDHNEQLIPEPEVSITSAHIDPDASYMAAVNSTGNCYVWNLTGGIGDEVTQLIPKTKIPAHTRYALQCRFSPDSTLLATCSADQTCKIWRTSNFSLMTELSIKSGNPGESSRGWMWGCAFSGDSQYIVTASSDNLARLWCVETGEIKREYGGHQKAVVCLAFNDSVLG
FLAG-tagged mLST8 mutant replacing Gly150 by Asp (Q9BVC4, form named): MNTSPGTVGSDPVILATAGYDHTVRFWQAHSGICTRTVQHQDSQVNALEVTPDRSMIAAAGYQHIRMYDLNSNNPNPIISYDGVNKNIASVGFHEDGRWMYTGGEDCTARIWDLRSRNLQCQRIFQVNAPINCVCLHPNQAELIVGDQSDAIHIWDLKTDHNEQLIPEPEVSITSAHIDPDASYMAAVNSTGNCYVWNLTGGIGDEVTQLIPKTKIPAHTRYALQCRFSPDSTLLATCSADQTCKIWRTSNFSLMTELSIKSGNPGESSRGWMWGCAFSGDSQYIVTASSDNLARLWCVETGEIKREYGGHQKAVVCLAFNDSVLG
FLAG-tagged mLST8 mutant replacing Gly192 by Asp (Q9BVC4, form named): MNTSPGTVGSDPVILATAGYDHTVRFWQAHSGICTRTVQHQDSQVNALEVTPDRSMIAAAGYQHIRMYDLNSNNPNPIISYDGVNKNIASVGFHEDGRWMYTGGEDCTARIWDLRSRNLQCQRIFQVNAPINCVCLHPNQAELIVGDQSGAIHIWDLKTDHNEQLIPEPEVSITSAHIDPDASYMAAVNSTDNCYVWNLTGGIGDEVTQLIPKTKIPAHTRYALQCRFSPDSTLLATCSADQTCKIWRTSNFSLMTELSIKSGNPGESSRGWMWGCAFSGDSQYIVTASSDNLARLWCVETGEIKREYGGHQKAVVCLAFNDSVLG
FLAG-tagged mLST8 mutant replacing Ala182 by Asp (Q9BVC4, form named): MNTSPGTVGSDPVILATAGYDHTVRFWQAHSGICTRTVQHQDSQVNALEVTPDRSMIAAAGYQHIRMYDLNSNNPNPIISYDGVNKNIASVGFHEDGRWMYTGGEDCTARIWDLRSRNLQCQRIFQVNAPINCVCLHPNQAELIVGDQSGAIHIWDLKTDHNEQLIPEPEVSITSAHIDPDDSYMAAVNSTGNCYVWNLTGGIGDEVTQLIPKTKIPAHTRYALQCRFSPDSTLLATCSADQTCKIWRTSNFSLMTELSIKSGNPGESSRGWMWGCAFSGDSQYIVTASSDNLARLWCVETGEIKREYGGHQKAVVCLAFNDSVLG
FLAG-tagged mLST8 mutant replacing Phe320 by Ser (Q9BVC4, form named): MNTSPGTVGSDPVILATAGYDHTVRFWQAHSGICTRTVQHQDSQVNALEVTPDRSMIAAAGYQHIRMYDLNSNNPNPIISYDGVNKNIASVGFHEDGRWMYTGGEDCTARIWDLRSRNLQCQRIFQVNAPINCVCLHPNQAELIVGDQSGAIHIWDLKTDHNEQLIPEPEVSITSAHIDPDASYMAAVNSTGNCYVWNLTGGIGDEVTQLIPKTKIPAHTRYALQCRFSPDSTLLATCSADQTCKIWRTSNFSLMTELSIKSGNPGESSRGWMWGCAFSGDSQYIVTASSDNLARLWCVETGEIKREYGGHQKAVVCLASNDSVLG
UniProt P27708: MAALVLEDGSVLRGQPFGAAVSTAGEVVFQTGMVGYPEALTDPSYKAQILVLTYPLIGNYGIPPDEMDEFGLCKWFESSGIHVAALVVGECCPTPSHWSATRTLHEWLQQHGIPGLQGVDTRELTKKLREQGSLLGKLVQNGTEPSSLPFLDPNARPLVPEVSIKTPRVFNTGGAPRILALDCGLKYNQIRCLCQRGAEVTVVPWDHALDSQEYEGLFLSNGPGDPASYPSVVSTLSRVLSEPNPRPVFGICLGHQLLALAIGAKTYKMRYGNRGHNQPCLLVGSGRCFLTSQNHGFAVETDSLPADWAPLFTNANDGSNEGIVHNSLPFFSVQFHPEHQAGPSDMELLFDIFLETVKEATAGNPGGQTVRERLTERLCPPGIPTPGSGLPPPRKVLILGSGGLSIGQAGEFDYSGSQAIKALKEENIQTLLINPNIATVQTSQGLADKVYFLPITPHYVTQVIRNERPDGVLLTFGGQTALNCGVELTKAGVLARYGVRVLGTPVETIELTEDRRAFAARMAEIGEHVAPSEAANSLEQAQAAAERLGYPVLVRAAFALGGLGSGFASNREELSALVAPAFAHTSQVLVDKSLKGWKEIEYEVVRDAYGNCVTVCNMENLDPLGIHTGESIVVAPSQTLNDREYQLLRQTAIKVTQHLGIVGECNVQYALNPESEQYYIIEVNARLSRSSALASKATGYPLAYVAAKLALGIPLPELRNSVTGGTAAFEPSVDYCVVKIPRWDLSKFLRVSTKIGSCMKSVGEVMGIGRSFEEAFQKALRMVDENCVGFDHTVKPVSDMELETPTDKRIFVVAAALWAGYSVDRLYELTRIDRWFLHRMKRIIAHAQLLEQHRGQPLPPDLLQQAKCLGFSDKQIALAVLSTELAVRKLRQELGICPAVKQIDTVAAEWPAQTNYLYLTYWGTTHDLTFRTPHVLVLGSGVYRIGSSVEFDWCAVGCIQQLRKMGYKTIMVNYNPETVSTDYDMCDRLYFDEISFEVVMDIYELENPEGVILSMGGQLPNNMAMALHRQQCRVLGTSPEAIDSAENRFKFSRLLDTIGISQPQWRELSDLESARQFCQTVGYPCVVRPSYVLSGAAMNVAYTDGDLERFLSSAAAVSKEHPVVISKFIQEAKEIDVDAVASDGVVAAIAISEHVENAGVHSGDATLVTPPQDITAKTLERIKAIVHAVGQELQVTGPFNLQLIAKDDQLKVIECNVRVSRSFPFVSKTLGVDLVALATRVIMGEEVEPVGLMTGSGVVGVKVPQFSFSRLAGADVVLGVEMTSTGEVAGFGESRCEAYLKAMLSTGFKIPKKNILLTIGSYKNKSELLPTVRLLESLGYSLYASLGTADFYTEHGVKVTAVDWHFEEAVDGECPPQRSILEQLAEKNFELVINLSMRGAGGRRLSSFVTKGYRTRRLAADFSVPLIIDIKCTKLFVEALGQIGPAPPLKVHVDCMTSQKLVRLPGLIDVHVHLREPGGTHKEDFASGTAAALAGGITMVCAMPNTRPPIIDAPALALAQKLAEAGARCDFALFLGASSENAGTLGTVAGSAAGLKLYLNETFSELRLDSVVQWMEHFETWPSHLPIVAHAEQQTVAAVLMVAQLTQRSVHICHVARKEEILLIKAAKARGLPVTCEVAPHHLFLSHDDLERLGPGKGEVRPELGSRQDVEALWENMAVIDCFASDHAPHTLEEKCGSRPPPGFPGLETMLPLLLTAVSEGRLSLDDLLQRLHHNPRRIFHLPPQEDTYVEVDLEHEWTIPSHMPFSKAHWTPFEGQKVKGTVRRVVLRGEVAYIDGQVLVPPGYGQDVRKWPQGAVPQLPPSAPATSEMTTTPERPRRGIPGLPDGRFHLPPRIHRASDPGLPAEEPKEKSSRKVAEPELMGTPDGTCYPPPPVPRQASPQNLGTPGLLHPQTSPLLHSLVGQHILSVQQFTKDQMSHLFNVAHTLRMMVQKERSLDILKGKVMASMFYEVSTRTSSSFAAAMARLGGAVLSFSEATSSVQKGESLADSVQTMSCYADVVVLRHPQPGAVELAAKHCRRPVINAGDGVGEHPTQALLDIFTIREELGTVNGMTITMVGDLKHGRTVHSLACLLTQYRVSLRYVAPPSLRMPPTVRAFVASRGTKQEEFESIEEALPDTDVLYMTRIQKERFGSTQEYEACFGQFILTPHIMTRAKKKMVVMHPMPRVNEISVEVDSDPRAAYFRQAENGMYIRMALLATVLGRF

Measured: binding

CAD, endogenously expressed in HEK293 cells (from UniProt P27708 1-2225)
binds: [1] | [2]

myc-epitope tagged CAD, full length (from UniProt B2RQC6-1 1-2225)
not listed: [1]
binds: all other assays above
